Results deposited as PubChem BioAssay AID504774 (Drosophila RNAi Screening Center, 2011)
In all, the deposit lists about 23,000 reagents; shown is a random part of those that have a named target and a result. 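Values are quantile-normalised luminescence on an arbitrary scale; higher means more cells surviving MMS.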 Names joined by + are all predicted targets of the reagent. No sequences are given here.

- Assay: 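Knock-downs that shift viability of MMS-exposed cells relative to untreated ones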 (primary screen)
- System: Drosophila Kc167 cells
- Reagent: long dsRNA against Drosophila genes, about 0.25 µg dsRNA per well
- Time to read-out: about 6 days: 3 days knock-down, then 3 days with or without MMS
- Challenge: methyl methanesulphonate 0.004% (w/v) for 3 days after knock-down
- Measured: 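ATP-dependent luminescence as a measure of live cells in MMS-exposed wells, quantile normalised within each plate, with replicate values also given as a mean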
- Scale: mean viability with MMS and viability with MMS: higher = more surviving cells after MMS

| target gene | dsRNA | mean viability with MMS | viability with MMS, replicate 1 | viability with MMS, replicate 2 |
| --- | --- | --- | --- | --- |
| 5-HT7 (GeneID 43669) | DRSC12635 | 3.51e6 | 3.98e6 | 3.99e6 |
| CG5104 (GeneID 40280) | DRSC11765 | 3.62e6 | 4.10e6 | 4.10e6 |
| CG7878 (GeneID 40959) | DRSC16330 | 3.53e6 | 4.08e6 | 3.94e6 |
| Roc2 (GeneID 36246) | DRSC07313 | 3.53e6 | 4.04e6 | 4.00e6 |
| CG9705 (GeneID 39875) | DRSC11094 | 3.73e6 | 4.10e6 | 4.26e6 |
| Nemp (GeneID 32639) | DRSC20206 | 3.55e6 | 4.06e6 | 4.02e6 |
| CG13144 (GeneID 34444) | DRSC02241 | 3.62e6 | 4.00e6 | 4.22e6 |
| Tektin-A (GeneID 34934) | DRSC01921 | 3.62e6 | 4.11e6 | 4.14e6 |
| fwe (GeneID 39720) | DRSC09398 | 3.65e6 | 4.01e6 | 4.26e6 |
| fwe (GeneID 39720) | DRSC10594 | 3.65e6 | 4.07e6 | 4.18e6 |
| fwe (GeneID 39720) | DRSC21400 | 3.32e6 | 3.89e6 | 3.76e6 |
| Cyp4d21 (GeneID 34036) | DRSC03305 | 3.66e6 | 4.01e6 | 4.32e6 |
| Cndp2 (GeneID 35507) | DRSC04873 | 3.58e6 | 4.12e6 | 4.00e6 |
| CG33217 (GeneID 2768951) | DRSC22907 | 3.50e6 | 3.92e6 | 4.04e6 |
| PIG-Wb (GeneID 38220) | DRSC08526 | 3.54e6 | 4.05e6 | 3.96e6 |
| Acp76A (GeneID 40078) | DRSC09665 | 3.51e6 | 3.97e6 | 3.96e6 |
| ERp60 (GeneID 36270) | DRSC07309 | 3.64e6 | 4.10e6 | 4.17e6 |
| CG3184 (GeneID 31608) | DRSC18289 | 3.55e6 | 4.23e6 | 4.12e6 |
| Odc1 (GeneID 35766) | DRSC07482 | 3.63e6 | 4.15e6 | 4.11e6 |
| CG34039 (GeneID 3885643) | DRSC09318 | 3.60e6 | 4.06e6 | 4.10e6 |
| CG7565 (GeneID 38893) | DRSC10881 | 3.39e6 | 3.84e6 | 3.90e6 |
| CG13721 (GeneID 38556) | DRSC08330 | 3.81e6 | 4.33e6 | 4.27e6 |
| Cpr5C (GeneID 31510) | DRSC18340 | 3.60e6 | 4.13e6 | 4.03e6 |
| Wnt4 (GeneID 34007) | DRSC00976 | 3.11e6 | 3.55e6 | 3.58e6 |
| Wnt4 (GeneID 34007) | DRSC03477 | 3.60e6 | 4.05e6 | 4.08e6 |
| fz3 (GeneID 31023) | DRSC18779 | 3.64e6 | 4.18e6 | 4.06e6 |
| CG7728 (GeneID 39904) | DRSC10907 | 3.58e6 | 4.06e6 | 4.05e6 |
| CG42322 (GeneID 42455) | DRSC15112 | 3.62e6 | 4.09e6 | 4.10e6 |
| CG42322 (GeneID 42455) | DRSC15113 | 3.40e6 | 3.74e6 | 4.01e6 |
| CG42322 (GeneID 42455) | DRSC15114 | 3.21e6 | 3.66e6 | 3.74e6 |
| PH4alphaNE1 (GeneID 43625) | DRSC16546 | 3.45e6 | 3.89e6 | 3.96e6 |
| CG13325 (GeneID 36437) | DRSC06362 | 3.37e6 | 3.80e6 | 3.80e6 |
| AANATL3 (GeneID 35285) | DRSC02089 | 3.52e6 | 4.04e6 | 3.94e6 |
| bdl (GeneID 33635) | DRSC00271 | 3.54e6 | 4.08e6 | 3.95e6 |
| CG3368 (GeneID 43292) | DRSC15485 | 3.65e6 | 4.19e6 | 4.06e6 |
| CG30286 (GeneID 246529) | DRSC04070 | 3.58e6 | 4.11e6 | 4.03e6 |
| CG6441 (GeneID 34029) | DRSC02957 | 3.35e6 | 3.88e6 | 3.64e6 |
| Zasp66 (GeneID 38988) | DRSC08932 | 3.57e6 | 4.13e6 | 3.94e6 |
| Zasp66 (GeneID 38988) | DRSC10631 | 3.62e6 | 4.00e6 | 4.22e6 |
| Zasp66 (GeneID 38988) | DRSC10632 | 3.70e6 | 4.17e6 | 4.22e6 |
| wrapper (GeneID 37555) | DRSC04723 | 3.61e6 | 4.29e6 | 3.96e6 |
| CG31921 (GeneID 319027) | DRSC00013 | 3.53e6 | 4.22e6 | 3.82e6 |
| PH4alphaPV (GeneID 43640) | DRSC22400 | 3.51e6 | 4.07e6 | 3.90e6 |
| TotM (GeneID 33764) | DRSC02355 | 3.52e6 | 4.06e6 | 3.91e6 |
| CG42493 (GeneID 8674013) | DRSC05309 | 3.54e6 | 3.96e6 | 4.07e6 |
| CG14442 (GeneID 31609) | DRSC17935 | 3.47e6 | 3.89e6 | 4.06e6 |
| CG14352 (GeneID 33341) | DRSC00382 | 3.44e6 | 3.85e6 | 3.93e6 |
| CG8746 (GeneID 35867) | DRSC07257 | 3.44e6 | 3.83e6 | 3.99e6 |
| CG42812 + CG42811 | DRSC15367 | 3.61e6 | 4.06e6 | 4.14e6 |
| CG42812 + CG42811 | DRSC15368 | 3.59e6 | 4.11e6 | 4.02e6 |
| CG8490 (GeneID 36338) | DRSC07194 | 3.54e6 | 3.85e6 | 4.17e6 |
| CG13229 (GeneID 36168) | DRSC06349 | 3.48e6 | 3.83e6 | 4.03e6 |
| Cdk5 (GeneID 36727) | DRSC07359 | 3.63e6 | 4.11e6 | 4.13e6 |
| Usf (GeneID 31384) | DRSC18129 | 3.55e6 | 4.02e6 | 4.04e6 |
| CG5089 (GeneID 36859) | DRSC06914 | 3.54e6 | 4.04e6 | 3.97e6 |
| SCCRO4 (GeneID 40231) | DRSC10671 | 3.70e6 | 4.22e6 | 4.08e6 |
| sn (GeneID 31717) | DRSC18834 | 3.72e6 | 4.26e6 | 4.18e6 |
| Vajk4 (GeneID 36950) | DRSC06589 | 3.64e6 | 4.19e6 | 4.09e6 |
| Vajk4 (GeneID 36950) | DRSC07003 | 3.54e6 | 4.07e6 | 3.96e6 |
| ND-13B (GeneID 39214) | DRSC10643 | 3.54e6 | 4.09e6 | 3.93e6 |
| I-3 (GeneID 33068) | DRSC20479 | 3.50e6 | 3.99e6 | 3.97e6 |
| Slbp (GeneID 43448) | DRSC16863 | 3.47e6 | 3.90e6 | 3.94e6 |
| CG3437 (GeneID 39096) | DRSC10366 | 3.46e6 | 3.93e6 | 3.91e6 |
| cyr (GeneID 31733) | DRSC18017 | 3.56e6 | 4.10e6 | 4.00e6 |
| cyr (GeneID 31733) | DRSC18018 | 3.61e6 | 4.16e6 | 4.02e6 |
| cyr (GeneID 31733) | DRSC18021 | 3.51e6 | 3.95e6 | 4.03e6 |
| muc (GeneID 34021) | DRSC02832 | 3.76e6 | 4.13e6 | 4.25e6 |
| muc (GeneID 34021) | DRSC21940 | 3.46e6 | 3.97e6 | 3.90e6 |
